Results are given in words; binding and its absence hold for the method and conditions named.
Columns and labels:
[1] = target: MBP-His-tagged mouse CBY1 4E (L77E, L84E, L91E, L98E) (mouse) (UniProt Q9D1C2); experiment: SEC-MALS; typically 200 μl at 70 μM injected; Superose 12 10/300 GL; 50 mM Tris pH 7.5, 1 mM DTT, 1 mM EDTA, 100 mM NaCl; both purified
[2] = target: Trx-His-tagged mouse CBY1 N-terminal region (amino acids 1-70) (mouse) (UniProt Q9D1C2); experiment: as above

Molecule	binding [1]	binding [2]
MBP-His-tagged mouse CBY1 4E (L77E, L84E, L91E, L98E) (from UniProt Q9D1C2 1-127)	no binding (tested: typically 70 μM injected)	
Trx-His-tagged mouse CBY1 N-terminal region (amino acids 1-70) (domain or fragment) MPLFGSIFSPKKTPPRKSASLSNLHSLDRSTRELELGLDYGTPTMNLAGQSLKFENGQWVADSVISGGVD		no binding (tested: typically 70 μM injected)
